Measurements reported in PubChem BioAssay AID2099 (Broad Institute, 2009).
In all, about 330,000 compounds went through this assay and about 230 (0.07%) were called active. Inconclusive results, whose numbers are uncertain, are shown with a selection of clear calls.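 The calls were made as follows: active = more than half of a compound's replicate wells show inhibition beyond 50%, single wells judged on their own value; inconclusive = some, but no more than half, of replicates pass 50% inhibition; inactive = no replicate passes 50% inhibition.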

Protein sequences, listed by entry. Tags and fused reporters are not part of them. Residues count along the entry.
UniProt Q9H3R0, 1-420 limits assumed: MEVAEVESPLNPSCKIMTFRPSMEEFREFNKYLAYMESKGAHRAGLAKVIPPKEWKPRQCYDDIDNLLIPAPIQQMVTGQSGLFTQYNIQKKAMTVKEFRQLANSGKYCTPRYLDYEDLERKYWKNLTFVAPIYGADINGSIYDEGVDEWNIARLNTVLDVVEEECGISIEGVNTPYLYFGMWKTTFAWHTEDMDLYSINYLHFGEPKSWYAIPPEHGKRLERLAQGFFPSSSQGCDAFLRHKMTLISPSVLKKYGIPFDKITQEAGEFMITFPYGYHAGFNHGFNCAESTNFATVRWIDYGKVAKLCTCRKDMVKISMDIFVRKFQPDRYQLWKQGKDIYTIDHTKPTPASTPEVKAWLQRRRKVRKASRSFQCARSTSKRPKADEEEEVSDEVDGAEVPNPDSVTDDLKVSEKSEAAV

Each compound was assayed against Lysine-specific demethylase 4C (Homo sapiens) (UniProt Q9H3R0) (assay: inhibitors of GASC-1 histone demethylase, primary screen, biochemical, fluorescence, DELFIA europium (AID 2099;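 also: signal counts dimethyl H3K9 product captured on neutravidin plate; 0% = median of DMSO wells and 100% = 0.3 times that DMSO median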)). Details: GST-JMJD2C(1-420) H3K9me3 demethylation, at 2.35 µM, stronger effect = higher value.

| SMILES | inhibition |
| --- | --- |
| O=C1/C(=C\c2ccc(O)c(O)c2)C(c2ccccc2)=NN1c1ccccc1 | inconclusive: -131% |
| CC1Cc2ccccc2N1C(=O)c1cnc2ccccn2c1=O (stereo unspecified) | inconclusive: 183% |
| CC(C(=O)Nc1ccc(O)c(C(=O)O)c1)N1C(=O)/C(=C/c2cccs2)SC1=S (stereo unspecified) | inconclusive: -142% |
| COc1cc2c(cc1OC)C(C)N(S(=O)(=O)c1ccc(Cl)nc1)CC2 (stereo unspecified) | inconclusive: -155% |
| COc1cc(C(=O)NNC(=O)CSc2nnc3ccccn23)cc(OC)c1OC | inactive: 12.3% |
| COc1nc(NC(C)(C)C)nc(Oc2ccc(=O)n(C)n2)n1 | inconclusive: -50.4% |
| CC(=O)NCCC(=O)Nc1nc(-c2ccccc2Cl)cs1 | inactive: -24.5% |
| Cc1ccc(S(=O)(=O)/N=C(/NC(=S)Nc2ccccc2)c2ccccc2)cc1 | inconclusive: -79% |
| O=CNCCCc1nc2ccccc2n1CCc1ccccc1 | inactive: 8.41% |
| O=C(Nc1cccc(OCC(=O)N2CCOCC2)c1)C1CCCCC1 | inconclusive: -36.4% |
| O=C(CC1NCCNC1=O)OCc1ccccc1 (stereo unspecified) | inconclusive: -53.2% |
| CC(=O)Nc1ccc(S(=O)(=O)NCCC(=O)OCC(=O)NNC(=O)c2ccccc2)cc1 | inactive: 1.41% |
| CC(SC1=NCCS1)C(=O)Nc1nnc(-c2ccc(Cl)cc2)s1 (stereo unspecified) | inactive: 1.87% |
| CCc1ccccc1NC(=O)CSc1nc(C)c(C)o1 | inactive: 12.9% |
| COc1cccc(/C=N/Nc2ncnc3c2ncn3Cc2ccccc2)c1O | inactive: -6.29% |
| O=S(=O)(c1ccccc1)c1nc(-c2ccco2)oc1NCc1ccccc1 | inconclusive: -21.8% |
| COc1ccc(OC)c(Nc2nc(-c3cccs3)cs2)c1 | active: 50.9% |
| CCN1/C(=C/C(C)=C/c2sc3ccccc3[n+]2CC)Sc2ccccc21 | inactive: -2.13% |
| O=c1[nH]c(C2CCCN(S(=O)(=O)c3ccccc3)C2)nc2c1nnn2Cc1ccccc1 (stereo unspecified) | inconclusive: -162% |
| CC(C)[C@H](NC(=O)N1CC(=O)Nc2ccccc21)C(=O)N[C@H](Cc1c[nH]c2ccccc12)C(=O)O | inconclusive: -174% |
| CC(=O)c1sc(Nc2ccccn2)nc1C | inconclusive: -69.6% |
| COc1ccc(C)cc1S(=O)(=O)NC(C)c1cnn(-c2ccccn2)c1C (stereo unspecified) | inactive: -0.507% |

| SMILES | inhibition |
| --- | --- |
| COc1cccc(C(=O)NCCS(=O)(=O)NC2CCCC2)c1 | inconclusive: -190% |
| O=C(CSc1cccc[n+]1[O-])Nc1cc2c(cc1Cl)C(=O)c1ccccc1C2=O | inactive: -3.01% |
| CC1=C(C(=O)OCc2ccccc2)C(c2ccc(-c3ccccc3)cc2)NC(=O)N1CCCCCC(=O)O (stereo unspecified) | inactive: 14.2% |
| CC(C)(C)OC(=O)CC12CCCCC1NC(=O)O2 (stereo unspecified) | inconclusive: -330% |
| CC(=O)c1ccc(OCc2cc(C(=O)NCCN3CCCC(O)C3)no2)cc1 (stereo unspecified) | inconclusive: -57.3% |
| COc1ccccc1OCC(O)COC(N)=O (stereo unspecified) | inconclusive: -36.9% |
| CCOC(=O)C1CCCN(C(=O)C2CCN(S(=O)(=O)c3c(C)noc3/C=C/c3ccccc3F)CC2)C1 (stereo unspecified) | inconclusive: -52% |
| CC(=O)O[C@H]1C(=O)[C@]2(C)[C@H]([C@H](OC(=O)c3ccccc3)[C@]3(O)C[C@H](OC(=O)[C@H](O)[C@@H](NC(=O)c4ccccc4)c4ccccc4)C(C)=C1C3(C)C)[C@]1(OC(C)=O)CO[C@@H]1C[C@@H]2O | inconclusive: -51.3% |
| CCOC(=O)Nc1sc(NS(=O)(=O)c2ccc(C)cc2)nc1C | inactive: -4.16% |
| O=C(O)CC(CC(=O)Nc1ccc(N2CCOCC2)cc1)c1ccccc1 (stereo unspecified) | inconclusive: -57.5% |
| Nc1ncnc2c1ncn2[C@@H]1O[C@H](CNCC#Cc2ccccc2)[C@@H](O)[C@H]1O | active: 54% |
| O=C(Nc1ccc(F)cc1)N1CCc2ccccc2C1 | inconclusive: -64.7% |
| O=C(N/N=C/c1cc([N+](=O)[O-])ccc1Cl)c1cc(-c2ccccc2)nc2ccccc12 | inconclusive: -100% |
| CCC(C)Sc1ccc([C@H]2N[C@@](CC(C)C)(C(=O)OC)[C@H]3C(=O)N(CC)C(=O)[C@@H]23)cc1 (stereo partly specified) | inconclusive: -244% |
| COc1cc(C2=NOC(C(=O)NC3CCCCC3)C2)cc(OC)c1OC (stereo unspecified) | inconclusive: -223% |
| CC(C)n1c(CN(C)Cc2ccccc2)nc2c1c(=O)n(C)c(=O)n2C | inconclusive: -55.9% |
| CCc1c(C)sc(NC(=S)N2CC(C)OC(C)C2)c1C(=O)OC (stereo unspecified) | inactive: -2.4% |
| Fc1cccc(Cl)c1/C=N/n1c(-c2cccnc2)n[nH]c1=S | inactive: 6.44% |
| O=C(COc1ccc(S(=O)(=O)N2CCCCC2)cc1)N1CCCCCC1 | inconclusive: -51.7% |
| Cc1[nH]nc2c1C1(CCOC1C)C(C#N)=C(N)O2 (stereo unspecified) | inconclusive: -70.4% |
| CCC(C)NC(=O)NC1C(NC(=O)NC(C)CC)N(C)C(=O)N1C (stereo unspecified) | inconclusive: -207% |
| CCC(C)N1C(=O)S/C(=C/c2ccc3c(c2)n(C)c(=O)n3C)C1=O (stereo unspecified) | inactive: 27.6% |

| SMILES | inhibition |
| --- | --- |
| CC1(C)Cc2c(ccc3ccccc23)C(c2cc3ccccc3oc2=O)=N1 | inactive: -2.18% |
| Cc1ccc(C(=O)N2CCN(S(=O)(=O)c3ccc(C(C)C)cc3)CC2)s1 | inconclusive: -107% |
| CCn1c(SCC(=O)NCCc2ccccc2)nnc1C(C)C | inconclusive: -54.1% |
| Cc1cc(C)nc(NS(=O)(=O)c2ccc(N/C=C\C(=O)c3ccc(Cl)cc3)cc2)n1 | inactive: 3.1% |
| S=C(Nc1ccc(Br)cc1)Nc1ccc2c(c1)OCCO2 | inactive: -8.63% |
| O=C(O)CCCC[C@@H]1SC[C@@H]2NC(=O)N[C@@H]21 | active: 95.7% |
| COc1ccc(NC(=O)CNC(=O)C23CC4CC(CC(C4)C2)C3)c(OC)c1 | inconclusive: -140% |
| O=C(NCCc1ccccc1)c1cc(S(=O)(=O)N2CCOCC2)ccc1F | inconclusive: -180% |
| COc1ccc(OC)c(/C=N/NC(=O)CC(=O)NCc2ccccc2)c1 | inconclusive: -52.1% |
| COc1cccc(Nc2nc(-c3sc(N)nc3C)cs2)c1 | inactive: 0.882% |
| Oc1c(C=NCc2ccccc2)sc2ccccc12 | inactive: -2.55% |
| CC(C)C[C@@H](C(=O)N[C@@H](C(=O)O)c1ccccc1)N1C(=O)N2CCc3c([nH]c4ccccc34)[C@@]2(C)C1=O | inconclusive: -419% |
| COC(=O)c1ccccc1NC(=O)NC1CCN(Cc2ccccc2)CC1 | inconclusive: -114% |
| COCCCNc1nc2c([nH]1)c(=O)[nH]c(=O)n2C | inconclusive: -30.5% |
| Cc1ccc(NC(=O)c2ccc(NCc3ccc(F)cc3)nc2)cc1 | inactive: -1.54% |
| Cc1ccc(NC(=S)N2CCCCC2CO)cc1C (stereo unspecified) | inconclusive: -52.9% |
| Cc1cc(C(c2ccc(O)cc2)c2cc(C)c(O)cc2C)c(C)cc1O | inactive: 34.1% |
| COc1ccc(C(=O)NCCn2cc(SCC(=O)Nc3nnc(C)s3)c3ccccc32)cc1 | inconclusive: -230% |
| CC(C)Cn1c(=O)c(C(=O)Nc2ccncc2)c(O)c2ccccc21 | inactive: -6.37% |
| CC(Nc1c[nH]c(=O)[nH]c1=O)c1ccccc1 (stereo unspecified) | inconclusive: -140% |
| COC(=O)C1=C(C)N(c2cccc(C)c2)C(=O)/C1=C\c1cccs1 | inactive: 6.98% |
| CCN(C[C@H]1N[C@@](C)(C(=O)OC)[C@H]2C(=O)N(C)C(=O)[C@@H]12)C(=O)Nc1ccc(C)cc1 | active: 51.8% |

| SMILES | inhibition |
| --- | --- |
| CCc1cccc2sc(N(CCCN3CCOCC3)C(=O)CS(=O)(=O)c3ccccc3)nc12 | inconclusive: -55.7% |
| O=C(CCSc1ccc(Cl)c(Cl)c1)NC12CC3CC(CC(C3)C1)C2 | inactive: -0.577% |
| O=C1C=C(NCc2ccc3c(c2)OCO3)CC(c2ccccc2)C1 (stereo unspecified) | active: 60.5% |
| O=C(O)c1c2c(nc3ccc(F)cc13)CCC2 | inactive: 7.53% |
| CCOc1ccc(CN(C)C(=O)CNC(=O)c2cc(OC)c(OC)c(OC)c2)cc1 | inactive: 2.85% |
| O=C(Nc1nc2ccc(Oc3ccccc3)cc2s1)c1cc([N+](=O)[O-])ccc1N1CCOCC1 | inconclusive: -126% |
| c1ccn2c(SCc3cn4ccsc4n3)nnc2c1 | active: 51.2% |
| CCCCCCCCCCOC(=O)Cn1c(COc2ccc(Cl)cc2)[n+](C)c2ccccc21 | inactive: 29.7% |
| O=S(=O)(c1ccc(Cl)cc1Br)N1CCCCC1 | inconclusive: -89.2% |
| Cc1ccc(NC(=O)CN2C(=O)N/C(=C/c3ccc(C)o3)C2=O)cc1 | inactive: 17.6% |
| O=C(Oc1cccc(NC(=O)c2ccco2)c1)c1cccc(S(=O)(=O)N2CCCC2)c1 | active: 51.7% |
| CCOC(=O)N1CCN(C(=O)C(CC(C)C)NC(=O)C2CCCCC2)CC1 (stereo unspecified) | inconclusive: -84.1% |
| CNC(=O)c1nnsc1S(=O)(=O)c1ccc(Cl)cc1 | inactive: 5.06% |
| C[C@H](CO)N1C[C@H](C)[C@@H](CN(C)C(=O)Nc2ccc3c(c2)OCO3)Oc2ccc(NC(=O)Cn3cnnn3)cc2C1=O | active: 68.4% |
| CCCc1cc(C(=O)Nc2cccnc2Cl)no1 | inconclusive: -50.7% |
| CC1CCC(NC(=O)c2cc(S(=O)(=O)N3CCCCC3)ccc2N2CCOCC2)CC1 (stereo unspecified) | inactive: 7.71% |
| COC(=O)c1c(-c2ccc(Br)cc2)noc1N | inconclusive: -57.1% |
| COc1cc(/C=C/C(=O)CC(=O)/C=C/c2ccc(O)c(OC)c2)ccc1O | inconclusive: -32.9% |
| CN(C)CC(C)(C)CNS(=O)(=O)c1ccc(Cl)c(Cl)c1 | inconclusive: -65.8% |
| O=C(CN1CCN(c2ccccc2O)CC1)Nc1ccc([N+](=O)[O-])cc1Br | inconclusive: -220% |

Laid out differently: 4 of the compounds above.
SMILES | inhibition
O=C(Nc1nc2ccc(Oc3ccccc3)cc2s1)c1cc([N+](=O)[O-])ccc1N1CCOCC1 | inconclusive: -126%
c1ccn2c(SCc3cn4ccsc4n3)nnc2c1 | active: 51.2%
CCCCCCCCCCOC(=O)Cn1c(COc2ccc(Cl)cc2)[n+](C)c2ccccc21 | inactive: 29.7%
O=S(=O)(c1ccc(Cl)cc1Br)N1CCCCC1 | inconclusive: -89.2%

Single values from the list.
Value for CC1Cc2ccccc2N1C(=O)c1cnc2ccccn2c1=O (stereo unspecified) under inhibition: inconclusive: 183%
Value for CC1=C(C(=O)OCc2ccccc2)C(c2ccc(-c3ccccc3)cc2)NC(=O)N1CCCCCC(=O)O (stereo unspecified) under inhibition: inactive: 14.2%
